Experimental findings from patent CN113621066A are described below.

Chains of the proteins cited; added tags and fusions are not shown. Residues count along the entry.
UniProt Q15116, residues 25-170: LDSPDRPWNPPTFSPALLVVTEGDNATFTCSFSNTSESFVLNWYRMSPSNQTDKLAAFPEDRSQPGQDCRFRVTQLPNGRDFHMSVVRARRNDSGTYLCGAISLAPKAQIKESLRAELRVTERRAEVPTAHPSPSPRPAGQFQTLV

No constants are given. Whether binding was seen depends on the method and setting. Some entries that bind do so weakly or less than the wild type.

The target in the assay is PD-1抗原 (human) (UniProt Q15116). The assay can be described thus: ELISA, antibody 3-fold serial dilution from 3 μg/mL, 12 points. On the technique in general: An ELISA detects its analyte on a solid surface through an enzyme-linked reagent.

B1: 抗PD-1B8抗体 (antibody, V domains shown)
VH: EVQLVESGGGLVQPGGSLRLSCAASGFTFSSYDMSWVRQAPGKGLEWVSAISGGGRYTYYADSVKGRFTISRDNSKNTLYLQMNSLRAEDTAVYYCAVRFGESWFSYWGQGTTVTVSS
VL: DIQMTQSPSSLSASVGDRVTITCRASQGINNYLAWFQQKPGKAPKSLIYRASRLVSGVPSRFSGSGSGTDFTLTISSLQPEDFATYYCLQYDEFTLTFGQGTKLEIK
Take B1: the binding entry was “binds”.
